The values below come from patent US7053194.

The assay has as its target temperature-sensitive p53 (Valine 135 allele) of murine Va15 cells (UniProt P02340). In words: reciprocal co-immunoprecipitation from Va15 cells with mAb 421, mSin3a western.

These are yes or no findings as the source states them, for the method shown. Binding seen in cells or lysates may run through a third protein. Some entries that bind do so weakly or less than the wild type.

B1: mSin3a (endogenous, murine Va15 cells) (protein, UniProt Q60520 1-1274, looked up)
chain: MKRRLDDQESPVYAAQQRRIPGSTEAFSHQHRVLAPAPPVYEAVSETMQSATGIQYSVAPNYQVSAVPQSSGSHGPAIAAVHSSHHHPTAVQPHGGQVVQSHAHPAPPVAPVQGQQQFQRLKVEDALSYLDQVKLQFGSQPQVYNDFLDIMKEFKSQSIDTPGVISRVSQLFKGHPDLIMGFNTFLPPGYKIEVQTNDMVNVTTPGQVHQIPTHGIQPQPQPPPQHPSQPSSQSAPTPAQPAPQPTAAKVSKPSQLQAHTPASQQTPPLPPYASPRSPPVQPHTPVTISLGTAPSLQNNQPVEFNHAINYVNKIKNRFQGQPDIYKAFLEILHTYQKEQRNAKEAGGNYTPALTEQEVYAQVARLFKNQEDLLSEFGQFLPDANSSVLLSKTTAEKVDSVRNDHGGTVKKPQLNNKPQRPSQNGCQIRRHSGTGATPPVKKKPKLMSLKESSMADASKHGVGTESLFFDKVRKALRSAEAYENFLRCLVIFNQEVISRAELVQLVSPFLGKFPELFNWFKNFLGYKESVHLESFPKERATEGIAMEIDYASCKRLGSSYRALPKSYQQPKCTGRTPLCKEVLNDTWVSFPSWSEDSTFVSSKKTQYEEHIYRCEDERFELDVVLETNLATIRVLEAIQKKLSRLSAEEQAKFRLDNTLGGTSEVIHRKALQRIYADKAADIIDGLRKNPSIAVPIVLKRLKMKEEEWREAQRGFNKVWREQNEKYYLKSLDHQGINFKQNDTKVLRSKSLLNEIESIYDERQEQATEENAGVPVGPHLSLAYEDKQILEDAAALIIHHVKRQTGIQKEDKYKIKQIMHHFIPDLLFAQRGDLSDVEEEEEEEMDVDEATGAPKKHNGVGGSPPKSKLLFSNTAAQKLRGMDEVYNLFYVNNNWYIFMRLHQILCLRLLRICSQAERQIEEENREREWEREVLGIKRDKSDSPAIQLRLKEPMDVDVEDYYPAFLDMVRSLLDGNIDSSQYEDSLREMFTIHAYIAFTMDKLIQSIVRQLQHIVSDEVCVQVTDLYLAENNNGATGGQLNSQTSRSLLESAYQRKAEQLMSDENCFKLMFIQSQGQVQLTVELLDTEEENSDDPVEAERWSDYVERYMSSDTTSPELREHLAQKPVFLPRNLRRIRKCQRGREQQEKEGKEGNSKKTMENVESLDKLECRFKLNSYKMVYVIKSEDYMYRRTALLRAHQSHERVSKRLHQRFQAWVDKWTKEHVPREMAAETSKWLMGEGLEGLVPCTTTCDTETLHFVSINKYRVKYGTVFKAP
In the case of B1, the binding result is “binds”.
